Laboratory results from paper doi:10.1101/2022.04.06.487405.

The chains behind the UniProt entries cited, without tags or fusion partners.
UniProt P26785: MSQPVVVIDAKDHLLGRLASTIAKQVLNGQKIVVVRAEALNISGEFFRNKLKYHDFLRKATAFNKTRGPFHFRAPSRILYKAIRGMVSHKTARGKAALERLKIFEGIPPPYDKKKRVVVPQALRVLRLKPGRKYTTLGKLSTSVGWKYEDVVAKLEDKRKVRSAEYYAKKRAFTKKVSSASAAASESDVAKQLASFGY
UniProt P10664: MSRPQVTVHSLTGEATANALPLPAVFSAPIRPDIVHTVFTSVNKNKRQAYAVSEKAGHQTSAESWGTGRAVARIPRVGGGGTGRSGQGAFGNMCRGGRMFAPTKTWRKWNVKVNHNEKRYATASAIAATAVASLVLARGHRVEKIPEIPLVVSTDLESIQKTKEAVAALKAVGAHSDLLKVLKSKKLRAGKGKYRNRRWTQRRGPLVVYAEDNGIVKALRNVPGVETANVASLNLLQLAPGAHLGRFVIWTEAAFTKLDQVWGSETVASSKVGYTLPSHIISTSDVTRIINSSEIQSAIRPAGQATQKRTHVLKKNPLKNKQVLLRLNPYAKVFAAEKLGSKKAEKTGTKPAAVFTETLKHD

B1: Rpl33B (protein, UniProt P41056 1-107)
chain: MAESHRLYVKGKHLSYQRSKRVNNPNVSLIKIEGVATPQEAQFYLGKRIAYVYRASKEVRGSKIRVMWGKVTRTHGNSGVVRATFRNNLPAKTFGASVRIFLYPSNI
B2: Rpl14A (protein, UniProt P36105 1-138)
chain: MSTDSIVKASNWRLVEVGRVVLIKKGQSAGKLAAIVEIIDQKKVLIDGPKAGVPRQAINLGQVVLTPLTFALPRGARTATVSKKWAAAAVCEKWAASSWAKKIAQRERRAALTDFERFQVMVLRKQKRYTVKKALAKA

Molecular target: Rpl16B (tagged YNL069C from the MORF collection) (S. cerevisiae) (UniProt P26785)
Assay: affinity purification with mass spectrometry

Row | binding | Molecule
1 | binds | Rpl4A (from UniProt P10664 1-362)
2 | binds | B1
3 | binds | B2

No constants are given. Whether binding was seen depends on the method and setting. Binding seen in cells or lysates may run through a third protein. These calls come from enrichment with a bait or labelling near it, and not all partners need be listed.
